Experimental data taken from patent US9315496B2, “Benzopyrone derivative and use thereof” (HUAZHONG UNIVERSITY OF SCIENCE & TECHNOLOGY, priority 2011, dated 2016).

What follows are compounds tested on KM mice (assay: Catalepsy assay). Conditions: ratio of ED50 values, mice po.
Type: in vivo
Method: Healthy mice of Kunming breed (with half male and half female, (22±2)g) were provided by Qinglongshan Animal Cultivation Center, Nanjing.
Instruments: self-made bar-grabbing apparatus: stainless steel bar in mice box, which was 0.3 cm in diameter and […].
Corresponding solvent double-distilled water was administered intragastrically to the negative control group and the model group, corresponding positive drugs were administered intragastrically to the positive drug groups (a small amount of acetic acid was first added and then double-distilled water was added when dissolving), and corresponding dosages of compounds were administered intragastrically to the compound groups for each dosage, with the volume for intragastric administration as 0.1 ml/10 g. At 30 min, 60 min, 90 min after the intragastric administration, the two forepaws of the mice were gently placed on the bars (which were 20 cm in length, 0.3 cm in diameter, and 5.5 cm above the bench), and the hindpaws of the animals were placed on the bottom of the box. The durations for the mice to maintain the posture with the two forepaws on the bars were recorded, and 30 s of spasticity without moving was considered as the positive response. In the case the forepaws of the mice were not put down persistently, the observation was terminated at 60 s. The numbers of animals with positive response in each of the compound dosage groups were counted.

Compound | catalepsy/MK-801 induced high activity | catalepsy/apomorphine induced clambering
O=c1ccc2ccc(OCCCCN3CCC(c4noc5cc(F)ccc45)CC3)cc2o1 [Compound 1, 7-(4-(4-(3-(6-fluoro-benzisoxazole)-1-piperidyl)-n-butoxy))-2H-benzopyran-2-one] | 2.35 | 4.41
Cc1cc(=O)oc2cc(OCCCCN3CCC(c4noc5cc(F)ccc45)CC3)ccc12 [Compound 6, 7-(4-(4-(3-(6-fluoro-benzisoxazole)-1-piperidyl)-n-butoxy))-4-methyl-2H-benzopyran-2-one] | 2.13 | 6.18
Cc1cc(=O)oc2cc(OCCCN3CCC(c4noc5cc(F)ccc45)CC3)ccc12 [Compound 7, 7-(3-(4-(3-(6-fluoro-benzisoxazole)-1-piperidyl)-n-propoxy))-4-methyl-2H-benzopyran-2-one] | 5.56 | 10.00
Cc1cc(=O)oc2c(Cl)c(OCCCCN3CCC(c4noc5cc(F)ccc45)CC3)ccc12 [Compound 19, 7-(4-(4-(3-(6-fluoro-benzisoxazole)-1-piperidyl)-n-butoxy))-4-methyl-8-chloro-2H-benzopyran-2-one] | 53.27 | 42.17
Cc1cc(=O)oc2c(C)c(OCCCCN3CCC(c4noc5cc(F)ccc45)CC3)ccc12 [Compound 23, 7-(4-(4-(3-(6-fluoro-benzisoxazole)-1-piperidyl)-n-butoxy))-4,8-dimethyl-2H-benzopyran-2-one] | 10.88 | 219.71
O=C1CCc2ccc(OCCCCN3CCN(c4cccc(Cl)c4Cl)CC3)cc2N1 [aripiprazole, reference compound] | 20.00 | 11.43
O=C(CCCN1CCC(O)(c2ccc(Cl)cc2)CC1)c1ccc(F)cc1 [haloperidol, reference compound] | 4.40 | 4.89
OCCOCCN1CCN(C2=Nc3ccccc3Sc3ccccc32)CC1 [quetiapine, reference compound] | 79.21 | 396.04
O=C1Cc2cc(CCN3CCN(c4nsc5ccccc45)CC3)c(Cl)cc2N1 [ziprasidone, reference compound] | 54.29 | 82.16
